Data taken from paper doi:10.1101/2024.07.13.603409.
These are yes or no findings as the source states them, for the method shown. In cells and extracts the contact can be indirect. Some entries that bind do so weakly or less than the wild type. For some of these results: Tags and fused reporters may be left off the sequences shown.

Protein sequences, listed by entry. Tags and fused reporters are not part of them.
UniProt Q14790: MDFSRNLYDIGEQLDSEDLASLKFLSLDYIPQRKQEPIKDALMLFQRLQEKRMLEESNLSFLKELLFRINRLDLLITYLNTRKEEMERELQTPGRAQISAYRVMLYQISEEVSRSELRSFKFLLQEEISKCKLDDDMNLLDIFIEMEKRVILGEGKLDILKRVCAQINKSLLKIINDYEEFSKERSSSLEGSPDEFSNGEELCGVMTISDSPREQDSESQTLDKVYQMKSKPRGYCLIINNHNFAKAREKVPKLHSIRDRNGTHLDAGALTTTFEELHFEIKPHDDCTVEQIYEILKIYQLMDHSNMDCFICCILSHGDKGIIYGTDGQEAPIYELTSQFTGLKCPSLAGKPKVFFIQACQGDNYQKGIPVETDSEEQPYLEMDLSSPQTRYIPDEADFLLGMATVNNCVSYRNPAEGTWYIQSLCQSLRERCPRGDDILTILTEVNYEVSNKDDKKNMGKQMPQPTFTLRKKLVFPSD
UniProt O00429: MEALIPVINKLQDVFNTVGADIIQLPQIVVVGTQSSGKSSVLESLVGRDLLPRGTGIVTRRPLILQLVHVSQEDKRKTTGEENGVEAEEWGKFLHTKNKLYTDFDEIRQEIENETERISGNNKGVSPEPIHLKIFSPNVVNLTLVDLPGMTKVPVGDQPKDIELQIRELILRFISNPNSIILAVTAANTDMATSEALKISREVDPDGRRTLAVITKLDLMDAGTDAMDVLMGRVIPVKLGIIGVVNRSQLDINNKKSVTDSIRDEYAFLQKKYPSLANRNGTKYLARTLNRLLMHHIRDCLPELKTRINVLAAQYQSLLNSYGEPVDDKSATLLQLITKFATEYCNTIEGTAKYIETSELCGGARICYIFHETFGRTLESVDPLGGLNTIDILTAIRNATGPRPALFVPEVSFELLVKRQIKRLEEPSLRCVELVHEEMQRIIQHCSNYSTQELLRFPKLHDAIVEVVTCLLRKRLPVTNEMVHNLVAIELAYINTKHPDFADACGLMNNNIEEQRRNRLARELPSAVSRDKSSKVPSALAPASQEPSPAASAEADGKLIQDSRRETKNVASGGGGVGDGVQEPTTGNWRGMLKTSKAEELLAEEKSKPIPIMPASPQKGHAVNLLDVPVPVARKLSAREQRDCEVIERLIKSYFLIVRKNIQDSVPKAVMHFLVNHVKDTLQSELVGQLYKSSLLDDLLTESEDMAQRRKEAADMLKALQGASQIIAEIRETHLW

Columns and labels:
Assay in all cases: pull-down
[1] = molecular target: T1, caspase-3, strep-tagged (human) (UniProt P42574)
T1 sequence: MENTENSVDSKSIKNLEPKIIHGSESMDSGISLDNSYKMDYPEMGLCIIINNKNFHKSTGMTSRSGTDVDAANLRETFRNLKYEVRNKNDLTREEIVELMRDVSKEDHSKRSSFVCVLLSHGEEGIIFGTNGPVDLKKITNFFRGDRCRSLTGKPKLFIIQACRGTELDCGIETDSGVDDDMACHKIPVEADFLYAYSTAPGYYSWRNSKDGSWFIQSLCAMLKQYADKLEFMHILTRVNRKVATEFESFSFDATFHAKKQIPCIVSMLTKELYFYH

caspase-8, strep-tagged = caspase-8, strep-tagged (UniProt Q14790)
caspase-6, strep-tagged = molecular target: T2, caspase-6, strep-tagged (UniProt P55212)
T2 sequence: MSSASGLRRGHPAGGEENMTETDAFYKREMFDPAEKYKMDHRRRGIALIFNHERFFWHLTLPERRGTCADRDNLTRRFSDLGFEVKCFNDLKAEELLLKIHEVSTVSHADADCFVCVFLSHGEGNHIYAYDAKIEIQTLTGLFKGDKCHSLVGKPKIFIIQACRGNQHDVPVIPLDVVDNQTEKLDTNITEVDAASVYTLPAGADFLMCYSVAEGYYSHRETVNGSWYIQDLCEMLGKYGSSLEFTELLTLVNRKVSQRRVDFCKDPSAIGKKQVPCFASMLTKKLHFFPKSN

caspase-7, strep-tagged = molecular target: T3, caspase-7, strep-tagged (UniProt P55210)
T3 sequence: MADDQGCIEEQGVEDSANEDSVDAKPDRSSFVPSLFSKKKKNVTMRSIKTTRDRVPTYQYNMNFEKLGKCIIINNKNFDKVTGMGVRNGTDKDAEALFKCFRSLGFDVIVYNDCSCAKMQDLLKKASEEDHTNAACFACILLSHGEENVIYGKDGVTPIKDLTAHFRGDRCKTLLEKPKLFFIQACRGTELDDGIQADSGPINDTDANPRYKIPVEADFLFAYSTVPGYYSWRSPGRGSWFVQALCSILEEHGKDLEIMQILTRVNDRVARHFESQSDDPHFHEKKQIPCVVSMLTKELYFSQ

Measured: binding

dynamin-related protein 1 (DRP1), V5-tagged (from UniProt O00429 1-736)
binds: all assays above
